Data: PMC4823954, “From fighting depression to conquering tumors: a novel tricyclic thiazepine compound as a tubulin polymerization inhibitor” (Cell Death & Disease, 2016)

Test system: H460TaxR cells
Assay: Genome-wide transcriptional profiling microarray
Assay type: cell-based, human
Conditions: 2 μM, 4 h

SMILES: Cc1ccc(C2=Nc3cccnc3S(=O)(=O)c3ccccc32)cc1 [TBPT, 6-(p-tolyl)benzo[f] pyrido[2,3-b][1,4] thiazepine 11,11-dioxide]
- number of genes suppressed (≥2-fold): 534 genes
- number of genes upregulated (≥2-fold): 410 genes
